PubChem BioAssay AID686943, Drosophila RNAi Screening Center, 2013
Purpose: 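Search across the genome for regulators of signalling from receptor tyrosine kinase to ERK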 (primary screen). System: Drosophila S2R+ haemocyte-like cells expressing YFP-tagged ERK (Rolled). Reagent: long dsRNA against Drosophila genes. Conditions: insulin stimulation versus unstimulated cells; dose and duration not given. Measured: 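Per-plate z-scores of phospho-ERK immunostaining normalised to YFP-tagged ERK, measured with and without insulin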. Direction: replicate 1, z-score of dpERK with insulin and replicate 2, z-score of dpERK with insulin: higher = more active ERK per ERK-YFP after insulin; replicate 1, z-score of dpERK under basal conditions: higher = more basal active ERK per ERK-YFP; replicate 1, z-score of ERK-YFP with insulin: higher = more YFP-tagged ERK signal.
The screen tested about 23,000 reagents; shown is an unselected part of those that have a named target and a result. 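Extra replicates exist only for a retested subset of genes; insulin dose and duration not given; both raised and lowered dpERK matter.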 Reagents against one gene are numbered here. No sequences are given here. The record does not give: the amount of reagent, the time to read-out.

gene knocked down,dsRNA no.,"replicate 1, z-score of dpERK with insulin","replicate 2, z-score of dpERK with insulin","replicate 1, z-score of dpERK under basal conditions","replicate 1, z-score of ERK-YFP with insulin"
CG2691,1,-0.67,-0.36,0,0.69
GstD2,1,-0.09,0.31,-0.22,0.46
Dyrk2,1,1.61,1.05,1,-0.49
CG30414,1,-0.75,1.27,-0.09,0.28
CG13810,1,0.93,0.31,-0.36,0.14
CG13810,2,1.39,0.75,-1.12,-0.42
Faa,1,-0.06,0.41,1.19,0.33
RhoGAP54D,1,-0.12,-0.43,0.31,-0.25
pio,1,-0.02,-0.19,0.13,-0.23
CG9757,1,1.72,0.49,-1.3,-0.49
CG9757,2,-1.01,-0.7,0.24,-0.62
CG6610,1,1.95,0.06,-0.36,-0.17
Jupiter,1,-1.76,-0.44,0.69,-0.92
Jupiter,2,-0.35,-0.67,0.84,-1.03
Jupiter,3,0.11,0.97,0.78,-0.72
CG34214,1,0.02,0.03,0.02,0.32
CG1750,1,2.03,-0.38,6.51,-3.6
snk,1,-0.32,1.45,0.74,0.01
CG31862,1,0.13,0.12,-0.12,0.3
ND-B17,1,-0.07,0.22,0.09,0.11
Mgat2,1,0.67,0.09,-0.02,-0.35
CG1690,1,0.92,1.9,0.98,0.56
beat-Vc,1,-0.69,0.61,-0.91,0.6
beat-Vc,2,-0.77,-0.02,-0.02,-0.11

Records above whose gene name begins with J or j:
gene knocked down,dsRNA no.,"replicate 1, z-score of dpERK with insulin","replicate 2, z-score of dpERK with insulin","replicate 1, z-score of dpERK under basal conditions","replicate 1, z-score of ERK-YFP with insulin"
Jupiter,1,-1.76,-0.44,0.69,-0.92
Jupiter,2,-0.35,-0.67,0.84,-1.03
Jupiter,3,0.11,0.97,0.78,-0.72
